In patent US20100266575A1 one finds binding data, which are given here for 2 molecules.

Sequences of proteins named here, by UniProt entry; tags and fusion partners are left off. A change or cut given only in a name is not applied to a line headed by its entry.
UniProt P17948: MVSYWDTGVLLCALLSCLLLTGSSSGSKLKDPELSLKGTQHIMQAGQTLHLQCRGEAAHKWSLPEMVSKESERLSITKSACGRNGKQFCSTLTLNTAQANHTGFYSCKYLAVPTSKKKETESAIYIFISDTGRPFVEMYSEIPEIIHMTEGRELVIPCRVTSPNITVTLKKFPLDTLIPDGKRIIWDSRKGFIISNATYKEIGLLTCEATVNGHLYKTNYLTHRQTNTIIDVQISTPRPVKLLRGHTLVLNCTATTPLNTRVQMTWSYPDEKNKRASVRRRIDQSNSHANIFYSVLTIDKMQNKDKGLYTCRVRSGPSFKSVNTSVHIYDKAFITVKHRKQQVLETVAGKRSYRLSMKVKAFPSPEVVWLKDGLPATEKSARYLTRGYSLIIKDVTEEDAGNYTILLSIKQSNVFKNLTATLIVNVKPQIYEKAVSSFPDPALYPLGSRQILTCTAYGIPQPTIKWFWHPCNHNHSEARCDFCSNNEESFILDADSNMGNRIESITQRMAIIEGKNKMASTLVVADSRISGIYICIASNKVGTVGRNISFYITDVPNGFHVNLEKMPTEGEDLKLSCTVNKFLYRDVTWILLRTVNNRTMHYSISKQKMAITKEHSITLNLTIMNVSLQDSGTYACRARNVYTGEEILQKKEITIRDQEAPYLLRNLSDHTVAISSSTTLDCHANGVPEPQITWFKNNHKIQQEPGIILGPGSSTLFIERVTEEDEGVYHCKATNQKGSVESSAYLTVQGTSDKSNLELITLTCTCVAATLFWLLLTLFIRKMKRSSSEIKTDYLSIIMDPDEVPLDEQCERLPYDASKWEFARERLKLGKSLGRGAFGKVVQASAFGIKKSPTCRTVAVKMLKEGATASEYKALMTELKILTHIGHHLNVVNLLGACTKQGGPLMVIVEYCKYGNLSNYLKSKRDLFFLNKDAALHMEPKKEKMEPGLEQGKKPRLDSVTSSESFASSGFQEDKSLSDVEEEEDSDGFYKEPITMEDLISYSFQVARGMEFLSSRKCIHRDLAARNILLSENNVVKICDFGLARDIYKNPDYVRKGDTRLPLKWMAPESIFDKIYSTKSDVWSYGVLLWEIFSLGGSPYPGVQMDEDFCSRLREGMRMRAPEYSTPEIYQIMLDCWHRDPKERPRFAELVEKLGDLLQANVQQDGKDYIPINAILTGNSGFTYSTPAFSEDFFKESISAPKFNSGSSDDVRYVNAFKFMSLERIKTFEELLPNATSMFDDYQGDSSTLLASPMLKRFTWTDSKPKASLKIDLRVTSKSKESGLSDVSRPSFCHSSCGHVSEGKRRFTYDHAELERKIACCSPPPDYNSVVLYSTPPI

Results are given in words; binding and its absence hold for the method and conditions named. Some entries that bind do so weakly or less than the wild type.

In test [1] the target is sFlt-1 (R&D Systems; construct not stated) (human) (UniProt P17948). Briefly: chemiluminescence immunoassay: supernatant antibody captured on anti-mouse IgG Fc, sFlt-1, PlGF-ACR tracer.
For test [2] the target is unchanged. Briefly: … sandwich: 1-833-527 on microparticles, 321 conjugate, sFlt-1 free and complexed with PlGF.
Test [3] has as its target sFlt-1 domains 1-6:Fc chimera from Sf21 cells using baculovirus (human) (UniProt P17948). Briefly: double-mAb sandwich CMIA on … (Example 7); positive = RLU > 400,000 at 1,000 pg/mL calibrator.
In test [4] the target is sFlt-1 (R&D Systems; construct not stated) (human) (UniProt P17948). Kind of test: competitive inhibition ELISA: sFlt-1 held on coated PlGF, biotin-labeled 1-833-217.

B1: anti-sFlt-1 monoclonal antibody 1-833-527 (antibody, V domains shown)
VH: QVQLQQSGAELVGPGSSVKISCKASGYAFSSYWMNWVKQRPGQGLEWIGQIYPGDGDTNYNGKFRGKVTLTADRSSSTADMQLSSLTSEDSAVYFCARDDGYEGFDYWGQGTTLTVSS
VL: DIVMTQSQKFMSTTVGDRVSLTCKASQSVGTAVAWYQEKTGQSPKLLIYSASNRYTGVPDRFTGSGSGTDFILTIRNMQSVDLADYFCQQYFTYPYTFGGGTKLEIQR
As to B1, the binding result in test [1], in test [2] and in test [3] was “binds” each time.

B2: anti-sFlt-1 monoclonal antibody 1-833-217 (antibody, V domains shown)
VH: QVQLQQSGAELVGPGSSVKISCKASGYAFSSYWMNWVKQRPGQGLEWIGQIYPGDGDTNYNGKFRGKVTLTADRSSSTADMQLSSLTSEDSAVYFCARDDGYEGFDYWGQGTTLTVSS
VL: DIVMTQSQKFMSTTVGDRVSLTCKASQSVGTAVAWYQEKTGQSPKLLIYSASNRYTGVPDRFTGSGSGTDFILTIRNMQSVDLADYFCQQYFTYPYTFGGGTKLEIQR
As for B2, the binding entry in test [1] and in test [4] was “binds” in each case.
